Assay results from paper PMC11481542.
Results are given in words; binding and its absence hold for the method and conditions named. For some assays here: In cells and extracts the contact can be indirect. Some entries that bind do so weakly or less than the wild type. For some assays here: Tags and fused reporters may be left off the sequences shown.

Amino acid sequences for entries named in this document (tags omitted). A change or cut given only in a name is not applied to a line headed by its entry.
UniProt P15144: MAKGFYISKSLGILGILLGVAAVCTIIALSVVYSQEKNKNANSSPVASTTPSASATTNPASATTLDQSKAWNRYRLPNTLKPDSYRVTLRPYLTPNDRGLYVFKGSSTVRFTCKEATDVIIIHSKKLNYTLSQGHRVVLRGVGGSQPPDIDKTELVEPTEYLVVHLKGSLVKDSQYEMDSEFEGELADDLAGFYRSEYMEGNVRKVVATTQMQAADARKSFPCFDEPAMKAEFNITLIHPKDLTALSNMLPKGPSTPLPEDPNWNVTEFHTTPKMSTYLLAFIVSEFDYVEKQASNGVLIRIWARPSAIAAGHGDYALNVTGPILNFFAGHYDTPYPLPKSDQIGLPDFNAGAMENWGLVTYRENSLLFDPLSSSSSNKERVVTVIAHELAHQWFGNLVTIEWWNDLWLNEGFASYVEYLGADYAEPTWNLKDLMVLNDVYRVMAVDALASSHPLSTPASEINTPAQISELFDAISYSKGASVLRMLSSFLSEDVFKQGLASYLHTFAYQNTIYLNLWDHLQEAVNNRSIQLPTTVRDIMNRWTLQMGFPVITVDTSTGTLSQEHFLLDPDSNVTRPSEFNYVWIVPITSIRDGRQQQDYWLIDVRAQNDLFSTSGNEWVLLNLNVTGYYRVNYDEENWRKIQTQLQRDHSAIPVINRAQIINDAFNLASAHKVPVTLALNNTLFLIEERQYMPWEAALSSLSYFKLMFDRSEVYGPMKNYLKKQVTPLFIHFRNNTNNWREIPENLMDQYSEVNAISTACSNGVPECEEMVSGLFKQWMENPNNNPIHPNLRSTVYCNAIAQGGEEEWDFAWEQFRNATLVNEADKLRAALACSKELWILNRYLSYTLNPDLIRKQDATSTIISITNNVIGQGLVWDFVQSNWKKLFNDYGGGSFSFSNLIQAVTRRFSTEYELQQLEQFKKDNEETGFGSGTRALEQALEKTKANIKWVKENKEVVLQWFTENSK

What was measured:
[1] = target: A. phagocytophilum invasion protein A residues 1-87 (AipA_(1–87)) extracellular domain, yeast two-hybrid bait (Anaplasma phagocytophilum) (UniProt Q2GJG3); experiment: two-hybrid; ULTImate yeast two-hybrid screen (Hybrigenics Services); AipA_(1–87) bait (C-terminal LexA or GAL4 fusion) mated with yeast bearing a randomly primed human leukocyte cDNA library (prey)
[2] = target: Flag-tagged human CD13 (aminopeptidase N) (human) (UniProt P15144); experiment: co-IP; HeLa cells co-transfected with Flag-CD13 and GFP-tagged AipA fragments, 24 h; lysates (50 mM Tris base, 400 nM NaCl as printed, 1 mM EDTA, 1% Triton X-100) precleared with protein A/G agarose, anti-Flag M2 affinity gel at 4°C overnight; western blot for GFP and Flag, GFP signal normalized to Flag

CD13 (aminopeptidase N) C-terminal amino acids 851–967, yeast two-hybrid prey fragment (from UniProt P15144 851-967) (domain or fragment)
binding [1]: binds

B1: GFP-tagged AipA residues 2-89 (GFP-AipA_(2–89)) (domain or fragment, UniProt Q2GJG3 2-89)
chain: SFTMSKLSLDPTQGSHTAENIACSIFDMVLGVKSTAKLLAGTWAGTSSTIWKTVTGAASSTKEASSKSYGTLRSSLGSSASRRMLGTC
binding [2]: binds
